Article PMC10466926
No constants are given. Whether binding was seen depends on the method and setting. Some results given as binding are weak or reduced against the parent protein; the word gives no strength.

Chains of the proteins cited; added tags and fusions are not shown. Lines headed by an entry give the natural chain unless they say otherwise; changes in a name come on top. Residues count along the entry.
UniProt Q931P4, residues 41-860: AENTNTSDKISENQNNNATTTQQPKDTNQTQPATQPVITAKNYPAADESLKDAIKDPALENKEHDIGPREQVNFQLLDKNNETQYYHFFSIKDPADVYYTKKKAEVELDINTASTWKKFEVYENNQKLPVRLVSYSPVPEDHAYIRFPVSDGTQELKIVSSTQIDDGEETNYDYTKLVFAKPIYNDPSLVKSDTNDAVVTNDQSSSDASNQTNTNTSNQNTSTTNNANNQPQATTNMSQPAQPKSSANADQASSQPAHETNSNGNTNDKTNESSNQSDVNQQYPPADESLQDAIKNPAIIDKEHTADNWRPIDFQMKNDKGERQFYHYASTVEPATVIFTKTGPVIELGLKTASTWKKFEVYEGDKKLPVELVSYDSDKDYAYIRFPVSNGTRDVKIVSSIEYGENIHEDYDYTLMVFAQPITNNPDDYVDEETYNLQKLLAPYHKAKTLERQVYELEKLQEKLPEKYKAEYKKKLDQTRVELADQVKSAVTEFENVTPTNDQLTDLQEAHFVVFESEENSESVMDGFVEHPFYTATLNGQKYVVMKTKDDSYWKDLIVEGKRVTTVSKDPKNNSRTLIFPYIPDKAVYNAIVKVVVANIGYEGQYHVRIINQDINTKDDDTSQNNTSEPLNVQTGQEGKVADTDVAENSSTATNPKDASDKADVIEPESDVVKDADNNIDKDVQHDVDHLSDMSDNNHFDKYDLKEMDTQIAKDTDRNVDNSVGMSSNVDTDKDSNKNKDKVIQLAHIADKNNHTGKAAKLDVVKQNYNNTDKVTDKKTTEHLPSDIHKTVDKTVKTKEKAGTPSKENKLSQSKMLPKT
UniProt P69905: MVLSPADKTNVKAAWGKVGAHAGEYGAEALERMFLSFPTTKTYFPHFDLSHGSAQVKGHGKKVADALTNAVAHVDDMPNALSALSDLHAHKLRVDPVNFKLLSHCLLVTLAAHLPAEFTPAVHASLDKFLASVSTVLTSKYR

Target: IsdH NEAT1–NEAT3 (full-length IsdH) (S. aureus Mu50) (UniProt Q931P4)
Experiment: SPR; both purified

In the case of “human hemoglobin (methemoglobin) (from UniProt P69905 1-142; P68871 1-147) (complex)”, the binding is reported as “binds”.
